No constants are given. Whether binding was seen depends on the method and setting. Binding seen in cells or lysates may run through a third protein. Binding calls can cover weak binding; strength is not graded here. Tags and fused reporters may be left off the sequences shown.
Target: T1, Myc-tagged mouse GPx1 (glutathione peroxidase type 1), wild type (mouse) (UniProt P11352)
T1 sequence (chain, selenocysteine at 47 (Sec47)): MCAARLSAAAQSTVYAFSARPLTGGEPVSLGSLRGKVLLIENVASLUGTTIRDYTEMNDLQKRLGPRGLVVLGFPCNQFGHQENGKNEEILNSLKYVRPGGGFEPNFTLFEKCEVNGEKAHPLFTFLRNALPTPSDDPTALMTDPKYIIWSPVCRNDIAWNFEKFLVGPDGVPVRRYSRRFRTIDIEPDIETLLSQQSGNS
Assay: co-IP; HeLa cells cotransfected with Myc-tagged GPx1 and Flag-tagged TRAF2 (wild type or truncated mutants), stimulated with T/C for 2 h; lysate immunoprecipitated with anti-Myc antibody

binding: binds
Substance: Flag-tagged TRAF2 truncated mutant lacking the N-terminal RING domain (human) (domain or fragment)

— paper PMC8257591
